In patent publication US6713603B2 (Isis Innovation Limited, priority 1996, dated 2004):

Experiments:
[1] = general procedure: Fmoc solid-phase peptide synthesis; Novasyn-TGR (dimethoxybenzhydrylamine); dipeptide pentafluorophenyl esters with HOBt; settings: whole synthesis, scale 5 μmol
[2] = Fmoc solid-phase peptide synthesis; Novasyn-TGR (dimethoxybenzhydrylamine); dipeptide pentafluorophenyl esters with HOBt; settings: whole synthesis, scale of the general procedure 5 μmol

Substance: H-[D-Ser-D-Pro(cis-4-T)]10LysNH2
- isolated yield [1]: 16%

Substance: H-[Gly-D-Pro(trans-4-T)]10-Lys-NH2
- difficulty met [2]: A possible reason for the low yield in the case of HBTU activation

Substance: H-[L-Ser-D-Pro(cis-4-T)]10LysNH2
- isolated yield [1]: 28%
